Article PMC10163288
The list shows a part of the results.

B1: il10ra_site1_sap_13_mot_HHH_b1_05357_000000034_0001_23_39_H_._HHH_b2_03488_0002_0000100008_0000001_0_0001 (protein)
chain: SSSSDEIEKRIEELLEEYEELVEKGDPERAARVIMEALHLAFRVRDEEALHKIWRLLKEQSSSSS
B2: il10ra_site1_normal_mot_b26a303360aa2756ef5b79665ce52f45_0001_000000179_0001_1_11_H_._HHH_b2_02758_0001_0000200026_0000001_0 (protein)
chain: SSSSSSRREVYELIREALHIDDLEEAREVLEEALELAKEAGDFVLRFSVEHLLRVLEEASSSSSS
B3: il10ra_site1_normal_mot_HHH_b1_01879_000000050_0001_1_18_H_._HHH_b2_01804_0001_0000300022_0000001_0_af2pred_0001 (protein)
chain: SSSSDLEEEVEKAKEEAEELLKRGNEEEAQELLFKIQIKAYQNNNRELARELAELIIEILRSSSS
B4: il10ra_site1_sap_29_mot_0750aae41c39e4229e2ea8fa354cc919_0001_1_000000144_0001_37_51_H_._HHH_b2_05459_0001_0000500025_0000001_0_0001 (protein)
chain: SSSSSEASRFAYEVLRRASELARRGNPEEAERLLEEAEELVREAGNRVLLFVLEYVLKRLSSSSS
B5: il10ra_site1_normal_mot_HHH_b2_00345_af2_000000013_0001_42_56_H_._HHH_b1_07352_af2_0001_0000500035_0000002_0 (protein)
chain: SSSSNDVSRVVAEALRHAFRLSDRETLRELWEAFKEYIKEGDEEYKERLEELLEELRERLSSSSS
B6: il10ra_site1_sap_24_mot_39ab2cb694c8b9c1dc7e65c0d672c93e_0001_000000036_0001_53_65_H_._HHH_b1_01585_af2_0001_0000200009_0000001_0_0001 (protein)
chain: SSSSSESARKFVRIAEEVIRRAIELGDEEYAELALRFLKASAEAANDEEAEEVLRELEELLSSSS
B7: il10ra_site1_sap_21_mot_HHH_b1_06341_af2_000000167_0001_17_35_H_._HHH_b1_02683_af2_0001_0000500027_0000001_1_0001 (protein)
chain: SSSSSEAFRRVERLLKEVVELARNGNPEEAQKVAEEAQEVAEEAGNQLLRRAVEYLLRIVSSSSS
B8: il10ra_site1_sap_22_mot_HHH_b1_03314_af2_000000278_0001_42_55_H_._HHH_b1_01485_0001_0000400019_0000002_0_0001_af2pred_0001 (protein)
chain: SSSSSSSAEELVKLALEVAKLLTDEELVEEALEQAKRLARINNNDELEREIEEVEREISSSSSSS
B9: il10ra_site1_sap_10_mot_HHH_b1_00456_000000263_0001_1_17_H_._HHH_b2_00546_0001_0000100001_0000002_0_0001_af2pred_dldesign_0_af2pred (protein)
chain: SSSDPKQKVLDLLAKAARLAKEGKLEEARKLIEEAEKLAKELKDPKLIAAVNYYKKLLEELSSSS
B10: il10ra_site1_normal_mot_HHH_b2_02337_000000026_0001_38_52_H_._HHH_b1_05800_0001_0000400037_0000001_0 (protein)
chain: SSSSDAEEELEEILERLEEALEKGDQELFAELALRLVQLAIQNSDEEILQLLWELVQKFASSSSS
B11: il10ra_site1_sap_18_mot_HHH_b1_08356_000000013_0001_43_57_H_._HHH_b2_06261_0001_0000100001_0000001_0_0001_af2pred_0001 (protein)
chain: SSSSRDEEAAELAIRFIKFLLEQGDRRAVKILLRALKELAEKLNDEELKEEIKELHELLEELSSS
B12: il10ra_site1_sap_22_mot_HHH_b2_01018_af2_000000007_0001_1_20_H_._HHH_b2_04835_0001_0000100003_0000002_0_0001 (protein)
chain: SSSSTEAYEISRRALELLREGNEEEARELLEKLEKELEEKGNFNFLFSVRAALRAVEARERSSSS
B13: il10ra_site1_normal_mot_3af0db62db2b275566dae2e03bf881fa_0001_000000003_0001_37_50_H_._HHH_b2_08305_0001_0000500051_0000001_0_af2pred_0001 (protein)
chain: SSSSDVEEEVKELLAEAFQIRDPEERKEVLEQAERLAEENNDPRLKVLVKAAKFIIKAAFSSSSS
B14: il10ra_site1_normal_mot_HHH_b2_06054_000000214_0001_39_53_H_._HHH_b1_06319_0001_0000100007_0000001_0_af2pred_0001 (protein)
chain: SSSSSEEREEVEELFEEAERLLEEGDYRRVSHLIRRMAELARKGDDPEAVRLVAEITRKLFSSSS
B15: il10ra_site1_sap_28_mot_HHH_b1_00992_000000182_0001_23_40_H_._HHH_b2_06735_0001_0000200016_0000002_0_0001 (protein)
chain: SSSSSEERLEELVEELEELVERNDLERFLELAVEALRLAFQLGDEEVLRRLWELVREIAGSSSSS
B16: il10ra_site1_normal_mot_HHH_b1_05357_000000034_0001_23_39_H_._HHH_b1_02046_af2_0001_0000500016_0000003_0 (protein)
chain: SSSDEERAEELTKRIEELLERGDDEEAEELLRELAALAARLRDPELSHIVIRLYALLHELKSSSS
B17: il10ra_site1_sap_14_mot_HHH_b2_04275_000000272_0001_20_36_H_._HHH_b2_04661_af2_0001_0000400028_0000002_0_0001_af2pred_0001 (protein)
chain: SSSSSKEERLLRLMRELLELARRLNNEEELRILEHLLKALAEQLNDEEAEELLEELRELLSSSSS
B18: il10ra_site1_normal_mot_HHH_b2_00984_000000042_0001_1_20_H_._HHH_b2_06425_af2_0001_0000400016_0000001_0 (protein)
chain: SSSSDEELKEELEELIEEVRELLERGNFEEASRLAQEILRLIYRLGDQELLQKLWRIIKSGSSSS
B19: il10ra_site1_sap_25_mot_HHH_b2_06864_af2_000000190_0001_1_20_H_._HHH_b2_03106_0001_0000400031_0000001_0_0001 (protein)
chain: SSSSTRELFKLSEEAMELLRKGDDEEARKVLEEARELAEEEGNRLALINLEFVLRDIEKTSSSSS
B20: il10ra_site1_sap_18_mot_HHH_b1_03531_000000273_0001_41_54_H_._HHH_b2_07361_0001_0000200019_0000001_0_0001 (protein)
chain: SSSSSDLEEEVEELLEEARHIEDPEERYKVLKEAIEVASERGDPELFRLIMEFLHQMFQGSSSSS
B21: il10ra_site1_normal_mot_HHH_b1_05185_000000011_0001_22_39_H_._HHH_b2_07913_af2_0001_0000700031_0000001_0 (protein)
chain: SSSSSDEEEEYARLAIHFARALAKQDPEAARLLIRLMISSAEENGDEEAVEELREVLEELSSSSS
B22: il10ra_site1_normal_mot_HHH_b1_02397_af2_000000085_0001_39_57_H_._HHH_b2_04674_0001_0000100007_0000001_0 (protein)
chain: SSSSDEEERQLEKLLEELKELVEEGDHERFARVLRRLLRLAFRLRDEEALQELHELAKLLVSSSS
B23: il10ra_site1_sap_8_mot_HHH_b2_05360_af2_000000051_0001_42_55_H_._2723fefb2504348229f2f56aa7a0cadc_0001_0001_0000100004_0000001_0_0001 (protein)
chain: SSSSSSEEELREEVEELLEEAKQITDWHEAAKVLLEAVRLAIQGQDPELLQRVWEVVKKLSSSSS
B24: il10ra_site1_sap_23_mot_HHH_b2_05323_000000159_0001_1_18_H_._HHH_b1_07636_0001_0000100009_0000001_0_0001 (protein)
chain: SSSSSDEEERLEELLEEVERAIEEGDDELALRLIMEALRIVFQLGDEEALHLLWELAKRLSSSSS

Each binder was assayed against il10ra, Q13651 (assay: yeast display titration).

Apparent Kd, inactive:
B1 no binding seen, B2 no binding seen, B3 no binding seen, B4 no binding seen, B5 no binding seen, B6 no binding seen, B7 no binding seen, B8 no binding seen, B9 no binding seen, B10 no binding seen, B11 no binding seen, B12 no binding seen, B13 no binding seen, B14 no binding seen, B15 no binding seen, B16 no binding seen, B17 no binding seen, B18 no binding seen, B19 no binding seen, B20 no binding seen, B21 no binding seen, B22 no binding seen, B23 no binding seen, B24 no binding seen
